The values that follow come from patent US10400009B2 (TIANJIN MEDICAL UNIVERSITY, priority 2014, dated 2019).

Ends that are not written are not given here.

This data set can be described thus: Fmoc solid-phase peptide synthesis; Fmoc-Asp(OtBu)-CTC Resin. Particulars: whole synthesis.

For the sequence HKQLPFYEED, the “final HPLC purity” value is “purity>95%”.
